This is a selection; strong and weak results do not stand in their true shares. The data scatter; read single values as rough.
compound: COC(=O)/C=C/c1ccccc1 [methyl cinnamate]; experiment: log2 ratio of iodoacetamide-alkyne labeling of the cysteine site, DMSO over compound (competition); higher = stronger covalent engagement of the cysteine by the compound, active = 1 or more; details: 500 µM; treatment time 1 h; system: HEK293T cell lysate
Summary of the method: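 After 1 h at ambient temperature with vehicle or electrophile (500 µM), HEK293T lysate (2 mg/mL) was labelled for 1 h with iodoacetamide alkyne and clicked to sCIP-TMT reagents. Pooled samples were trypsin-digested overnight at 37 °C, streptavidin-enriched, acid-eluted and analysed by Orbitrap Eclipse LC-MS/MS with FAIMS, then quantified in FragPipe over three replicates with duplicate channels. A cysteine's log2 competition ratio is its mean control-channel over mean compound-channel reporter intensity. Cysteines quantified in only one replicate were not included.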

Sequences of proteins named here, by UniProt entry; tags and fusion partners are left off. A change or cut given only in a name is not applied to a line headed by its entry.
UniProt P31949: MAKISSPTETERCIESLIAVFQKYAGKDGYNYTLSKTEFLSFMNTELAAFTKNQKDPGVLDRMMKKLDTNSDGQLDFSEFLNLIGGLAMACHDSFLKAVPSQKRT
UniProt P31939: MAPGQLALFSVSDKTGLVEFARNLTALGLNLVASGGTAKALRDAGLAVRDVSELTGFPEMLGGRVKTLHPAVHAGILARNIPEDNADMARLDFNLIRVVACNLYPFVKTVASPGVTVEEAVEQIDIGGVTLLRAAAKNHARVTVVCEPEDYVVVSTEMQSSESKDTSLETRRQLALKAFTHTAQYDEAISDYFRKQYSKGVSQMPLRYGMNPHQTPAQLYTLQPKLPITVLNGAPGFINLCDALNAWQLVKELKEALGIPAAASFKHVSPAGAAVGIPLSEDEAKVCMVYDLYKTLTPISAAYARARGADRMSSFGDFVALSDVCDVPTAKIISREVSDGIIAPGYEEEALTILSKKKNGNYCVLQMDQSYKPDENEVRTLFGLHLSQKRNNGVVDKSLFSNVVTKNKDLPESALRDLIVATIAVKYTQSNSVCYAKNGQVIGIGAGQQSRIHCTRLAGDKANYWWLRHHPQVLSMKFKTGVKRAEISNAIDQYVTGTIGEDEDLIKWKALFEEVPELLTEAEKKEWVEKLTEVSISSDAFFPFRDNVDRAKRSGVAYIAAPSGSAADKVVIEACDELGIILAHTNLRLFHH
UniProt P33981: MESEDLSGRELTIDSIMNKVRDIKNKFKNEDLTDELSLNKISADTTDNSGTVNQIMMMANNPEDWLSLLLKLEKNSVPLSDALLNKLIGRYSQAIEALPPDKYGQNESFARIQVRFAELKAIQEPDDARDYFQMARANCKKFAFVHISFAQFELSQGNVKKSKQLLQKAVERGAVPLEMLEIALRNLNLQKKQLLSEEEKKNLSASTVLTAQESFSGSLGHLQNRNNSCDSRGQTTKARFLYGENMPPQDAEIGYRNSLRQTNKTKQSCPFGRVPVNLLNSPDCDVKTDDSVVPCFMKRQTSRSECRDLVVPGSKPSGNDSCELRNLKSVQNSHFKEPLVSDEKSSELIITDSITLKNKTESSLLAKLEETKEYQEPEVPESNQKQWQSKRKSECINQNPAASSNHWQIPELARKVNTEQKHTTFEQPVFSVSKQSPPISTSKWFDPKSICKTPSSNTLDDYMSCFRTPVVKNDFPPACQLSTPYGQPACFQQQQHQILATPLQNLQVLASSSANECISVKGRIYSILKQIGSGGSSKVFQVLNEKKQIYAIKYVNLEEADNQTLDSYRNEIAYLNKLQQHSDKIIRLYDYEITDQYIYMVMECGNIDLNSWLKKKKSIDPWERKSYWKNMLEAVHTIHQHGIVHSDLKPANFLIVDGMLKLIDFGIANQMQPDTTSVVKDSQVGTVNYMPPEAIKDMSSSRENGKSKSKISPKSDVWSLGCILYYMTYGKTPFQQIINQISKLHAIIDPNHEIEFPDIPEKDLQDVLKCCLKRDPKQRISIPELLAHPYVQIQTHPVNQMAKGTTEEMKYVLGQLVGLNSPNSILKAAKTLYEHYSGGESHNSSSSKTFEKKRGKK
UniProt P33992: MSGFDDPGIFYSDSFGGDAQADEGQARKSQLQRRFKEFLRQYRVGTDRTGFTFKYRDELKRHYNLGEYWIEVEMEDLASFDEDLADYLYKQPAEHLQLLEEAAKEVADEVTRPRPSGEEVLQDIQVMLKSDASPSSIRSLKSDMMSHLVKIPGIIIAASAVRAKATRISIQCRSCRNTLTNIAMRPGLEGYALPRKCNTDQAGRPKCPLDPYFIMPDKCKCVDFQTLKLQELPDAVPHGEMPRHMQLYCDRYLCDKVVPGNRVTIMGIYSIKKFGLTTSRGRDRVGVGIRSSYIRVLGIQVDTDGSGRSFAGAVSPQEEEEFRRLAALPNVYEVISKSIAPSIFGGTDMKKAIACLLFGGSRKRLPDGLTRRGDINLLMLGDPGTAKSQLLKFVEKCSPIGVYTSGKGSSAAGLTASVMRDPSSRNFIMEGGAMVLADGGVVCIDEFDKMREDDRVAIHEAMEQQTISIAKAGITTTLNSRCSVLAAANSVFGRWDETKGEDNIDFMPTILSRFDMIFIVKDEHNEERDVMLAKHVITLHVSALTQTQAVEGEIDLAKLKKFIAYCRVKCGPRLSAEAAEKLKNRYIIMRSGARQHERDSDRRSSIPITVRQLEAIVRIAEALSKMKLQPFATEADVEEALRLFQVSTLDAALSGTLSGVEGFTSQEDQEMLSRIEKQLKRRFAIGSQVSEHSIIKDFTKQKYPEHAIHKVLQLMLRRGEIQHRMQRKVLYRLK
UniProt P41091, whole entry, looked up: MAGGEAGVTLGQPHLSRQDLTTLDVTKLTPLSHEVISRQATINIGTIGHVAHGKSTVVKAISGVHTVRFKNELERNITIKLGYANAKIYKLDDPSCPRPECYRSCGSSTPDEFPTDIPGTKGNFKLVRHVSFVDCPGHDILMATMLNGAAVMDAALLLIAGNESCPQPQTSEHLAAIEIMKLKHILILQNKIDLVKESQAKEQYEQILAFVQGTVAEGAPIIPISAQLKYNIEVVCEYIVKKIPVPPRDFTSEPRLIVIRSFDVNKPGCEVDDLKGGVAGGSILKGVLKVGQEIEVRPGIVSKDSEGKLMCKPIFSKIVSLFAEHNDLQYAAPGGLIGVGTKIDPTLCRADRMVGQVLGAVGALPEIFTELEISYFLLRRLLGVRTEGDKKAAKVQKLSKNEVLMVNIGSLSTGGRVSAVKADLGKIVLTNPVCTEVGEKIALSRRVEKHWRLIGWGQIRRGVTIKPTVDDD
UniProt P30153, whole entry, looked up: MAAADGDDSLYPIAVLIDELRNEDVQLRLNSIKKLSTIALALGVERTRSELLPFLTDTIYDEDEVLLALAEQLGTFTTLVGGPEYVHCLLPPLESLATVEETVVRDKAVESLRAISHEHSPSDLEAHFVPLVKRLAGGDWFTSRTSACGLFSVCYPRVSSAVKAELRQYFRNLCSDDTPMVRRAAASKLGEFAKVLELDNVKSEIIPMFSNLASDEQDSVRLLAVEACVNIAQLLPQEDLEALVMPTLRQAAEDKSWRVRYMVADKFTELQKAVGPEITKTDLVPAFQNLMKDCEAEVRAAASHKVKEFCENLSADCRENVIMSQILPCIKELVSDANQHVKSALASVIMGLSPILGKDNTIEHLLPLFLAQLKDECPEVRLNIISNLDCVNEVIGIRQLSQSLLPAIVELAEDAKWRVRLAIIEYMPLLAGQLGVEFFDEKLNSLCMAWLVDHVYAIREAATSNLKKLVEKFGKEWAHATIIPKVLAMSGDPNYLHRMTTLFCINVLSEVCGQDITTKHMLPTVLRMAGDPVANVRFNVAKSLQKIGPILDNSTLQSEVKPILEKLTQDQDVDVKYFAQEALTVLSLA
UniProt P35244: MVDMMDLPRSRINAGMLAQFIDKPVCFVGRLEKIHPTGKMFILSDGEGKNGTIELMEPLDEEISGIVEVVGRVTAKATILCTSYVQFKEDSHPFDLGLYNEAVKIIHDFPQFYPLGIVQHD
UniProt P42765: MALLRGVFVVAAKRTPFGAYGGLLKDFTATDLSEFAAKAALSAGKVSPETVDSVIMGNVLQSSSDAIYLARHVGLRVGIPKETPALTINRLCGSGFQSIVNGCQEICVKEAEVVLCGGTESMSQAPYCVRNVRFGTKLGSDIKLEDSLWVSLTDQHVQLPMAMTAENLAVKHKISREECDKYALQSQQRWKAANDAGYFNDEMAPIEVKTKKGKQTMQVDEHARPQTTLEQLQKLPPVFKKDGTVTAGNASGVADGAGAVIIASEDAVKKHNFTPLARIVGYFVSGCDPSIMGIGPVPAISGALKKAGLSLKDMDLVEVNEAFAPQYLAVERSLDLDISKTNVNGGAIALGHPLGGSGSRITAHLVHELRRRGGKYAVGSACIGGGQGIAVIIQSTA
UniProt P31948, whole entry, looked up: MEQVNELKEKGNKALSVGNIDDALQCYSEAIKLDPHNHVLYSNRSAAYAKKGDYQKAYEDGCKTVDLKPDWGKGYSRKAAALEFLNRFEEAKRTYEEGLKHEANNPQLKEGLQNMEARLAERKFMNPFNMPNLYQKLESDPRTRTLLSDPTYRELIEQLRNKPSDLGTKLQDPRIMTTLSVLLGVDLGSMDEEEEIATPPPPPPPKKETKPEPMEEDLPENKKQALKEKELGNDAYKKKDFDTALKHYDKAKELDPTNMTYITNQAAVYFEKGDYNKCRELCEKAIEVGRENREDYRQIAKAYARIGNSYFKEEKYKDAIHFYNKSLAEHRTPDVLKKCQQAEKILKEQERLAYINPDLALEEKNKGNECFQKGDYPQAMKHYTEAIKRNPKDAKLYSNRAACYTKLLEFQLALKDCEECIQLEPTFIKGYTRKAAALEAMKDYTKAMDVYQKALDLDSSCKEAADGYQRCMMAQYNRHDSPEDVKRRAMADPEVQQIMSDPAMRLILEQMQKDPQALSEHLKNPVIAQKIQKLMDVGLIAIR
UniProt P41252: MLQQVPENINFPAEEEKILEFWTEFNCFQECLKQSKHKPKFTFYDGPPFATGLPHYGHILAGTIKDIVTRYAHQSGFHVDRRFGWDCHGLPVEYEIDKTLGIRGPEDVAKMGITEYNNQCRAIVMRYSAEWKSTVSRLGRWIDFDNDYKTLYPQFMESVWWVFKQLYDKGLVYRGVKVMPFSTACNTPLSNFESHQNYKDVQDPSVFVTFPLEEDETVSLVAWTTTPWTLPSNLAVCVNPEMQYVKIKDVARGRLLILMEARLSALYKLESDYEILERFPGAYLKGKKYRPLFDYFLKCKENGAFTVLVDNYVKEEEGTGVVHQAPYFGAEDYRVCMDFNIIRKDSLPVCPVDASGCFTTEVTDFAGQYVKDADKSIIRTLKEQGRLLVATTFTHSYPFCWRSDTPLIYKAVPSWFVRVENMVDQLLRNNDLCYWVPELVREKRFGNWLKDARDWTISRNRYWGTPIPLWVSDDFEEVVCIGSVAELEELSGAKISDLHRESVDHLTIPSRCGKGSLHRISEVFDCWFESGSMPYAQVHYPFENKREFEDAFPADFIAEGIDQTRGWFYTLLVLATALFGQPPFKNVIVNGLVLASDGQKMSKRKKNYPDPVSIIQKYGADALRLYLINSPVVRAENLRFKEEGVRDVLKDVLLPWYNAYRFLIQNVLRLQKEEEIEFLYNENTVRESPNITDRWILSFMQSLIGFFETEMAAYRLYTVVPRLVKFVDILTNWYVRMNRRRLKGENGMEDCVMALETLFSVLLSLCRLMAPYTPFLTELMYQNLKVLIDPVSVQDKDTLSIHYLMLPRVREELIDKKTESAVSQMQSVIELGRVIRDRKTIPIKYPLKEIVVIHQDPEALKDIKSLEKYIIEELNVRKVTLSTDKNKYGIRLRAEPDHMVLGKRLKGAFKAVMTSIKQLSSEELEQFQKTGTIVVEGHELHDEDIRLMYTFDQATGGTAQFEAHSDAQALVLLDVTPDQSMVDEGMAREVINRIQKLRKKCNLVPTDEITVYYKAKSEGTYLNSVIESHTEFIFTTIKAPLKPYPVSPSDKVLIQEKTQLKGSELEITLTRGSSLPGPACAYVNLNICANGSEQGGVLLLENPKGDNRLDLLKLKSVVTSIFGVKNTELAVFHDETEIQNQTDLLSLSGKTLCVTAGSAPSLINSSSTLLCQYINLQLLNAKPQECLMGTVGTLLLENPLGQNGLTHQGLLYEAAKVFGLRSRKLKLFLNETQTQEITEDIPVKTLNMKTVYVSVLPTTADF
UniProt P34932: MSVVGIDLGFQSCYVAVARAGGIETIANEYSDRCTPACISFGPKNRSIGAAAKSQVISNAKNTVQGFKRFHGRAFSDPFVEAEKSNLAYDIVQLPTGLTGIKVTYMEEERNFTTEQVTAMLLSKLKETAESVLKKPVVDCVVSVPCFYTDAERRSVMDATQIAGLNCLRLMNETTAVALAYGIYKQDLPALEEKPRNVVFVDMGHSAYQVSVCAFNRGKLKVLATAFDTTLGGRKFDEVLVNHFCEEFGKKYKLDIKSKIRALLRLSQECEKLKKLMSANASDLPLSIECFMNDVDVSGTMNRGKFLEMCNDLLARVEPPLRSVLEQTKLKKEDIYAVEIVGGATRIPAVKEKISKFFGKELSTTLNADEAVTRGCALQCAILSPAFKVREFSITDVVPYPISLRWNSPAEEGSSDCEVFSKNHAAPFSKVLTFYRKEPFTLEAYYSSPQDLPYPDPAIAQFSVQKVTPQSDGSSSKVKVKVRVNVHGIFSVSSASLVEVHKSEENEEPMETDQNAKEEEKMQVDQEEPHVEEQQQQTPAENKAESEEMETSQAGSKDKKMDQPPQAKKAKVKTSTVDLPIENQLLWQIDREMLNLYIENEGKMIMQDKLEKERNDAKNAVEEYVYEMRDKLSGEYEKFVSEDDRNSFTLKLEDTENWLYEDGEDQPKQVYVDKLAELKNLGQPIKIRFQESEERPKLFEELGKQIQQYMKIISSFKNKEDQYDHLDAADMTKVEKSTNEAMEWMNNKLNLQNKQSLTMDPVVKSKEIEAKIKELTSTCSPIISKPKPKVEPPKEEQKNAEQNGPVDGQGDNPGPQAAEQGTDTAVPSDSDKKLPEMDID

log2 ratio of iodoacetamide-alkyne labeling, inactive:
S100A11 C91 (UniProt P31949) 0.212
ATIC C325 (UniProt P31939) -0.0613
DCTD C60 (UniProt P32321) 0.107
PHB C69 (UniProt P35232) -0.0362
SERPINB6 C350 (UniProt P35237) -0.173
STAT1 C108 (UniProt P42224) 0.19
TTK C229 (UniProt P33981) 0.399
AKT2 C124 (UniProt P31751) 0.332
POLR2B C1093 (UniProt P30876) 0.0597
FUS C433 (UniProt P35637) 0.0575
GDI1 C202 (UniProt P31150) 0.232
MCM5 C355 (UniProt P33992) 0.211
LRPPRC C130 (UniProt P42704) 0.284
EIF2S3 C269 (UniProt P41091) 0.0351
PPP2R1A C294 (UniProt P30153) 0.0156
ATIC C241 (UniProt P31939) 0.176
UniProt P42285_C650 0.148
RPA3 C26 (UniProt P35244) -0.13
PPP2R1A C154 (UniProt P30153) 0.153
ATIC C363 (UniProt P31939) 0.264
CUX1 C1040 (UniProt P39880) 0.624
ACAA2 C287 (UniProt P42765) 0.0829
RFC2 C171 (UniProt P35250) 0.0206
MYH9 C694 (UniProt P35579) 0.18
ACAA2 C179 (UniProt P42765) 0.296
RPL4 C125 (UniProt P36578) 0.0376
POLR2B C224 (UniProt P30876) 0.132
STIP1 C339 (UniProt P31948) 0.253
STIP1 C370 (UniProt P31948) 0.194
IARS C87 (UniProt P41252) 0.00411
HNRNPH1 C122 (UniProt P31943) -0.107
CTNNA1 C324 (UniProt P35221) 0.0518
SHMT2 C412 (UniProt P34897) 0.131
PPP2R1A C390 (UniProt P30153) 0.273
SHMT2 C91 (UniProt P34897) 0.214
HSPA4 C310 (UniProt P34932) 0.104
HSPA4 C380 (UniProt P34932) -0.0411

As a short view, part of the list above:
log2 ratio of iodoacetamide-alkyne labeling, inactive:
CUX1 C1040 (UniProt P39880) 0.624
ACAA2 C287 (UniProt P42765) 0.0829
RFC2 C171 (UniProt P35250) 0.0206
MYH9 C694 (UniProt P35579) 0.18
ACAA2 C179 (UniProt P42765) 0.296
RPL4 C125 (UniProt P36578) 0.0376
POLR2B C224 (UniProt P30876) 0.132
STIP1 C339 (UniProt P31948) 0.253
STIP1 C370 (UniProt P31948) 0.194
IARS C87 (UniProt P41252) 0.00411

— the supplement of paper PMC11006884
